The supplement of paper PMC7666118
The list shows a part of the results.

Chains of the proteins cited; added tags and fusions are not shown. Lines headed by an entry give the natural chain unless they say otherwise; changes in a name come on top.
UniProt P31944: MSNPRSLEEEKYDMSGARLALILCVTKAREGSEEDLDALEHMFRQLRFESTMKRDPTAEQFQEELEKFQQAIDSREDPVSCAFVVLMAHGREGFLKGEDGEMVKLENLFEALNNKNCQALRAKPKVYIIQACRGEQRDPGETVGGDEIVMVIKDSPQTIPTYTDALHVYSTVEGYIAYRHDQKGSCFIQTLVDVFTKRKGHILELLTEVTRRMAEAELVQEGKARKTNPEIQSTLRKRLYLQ
UniProt Q9HAS0: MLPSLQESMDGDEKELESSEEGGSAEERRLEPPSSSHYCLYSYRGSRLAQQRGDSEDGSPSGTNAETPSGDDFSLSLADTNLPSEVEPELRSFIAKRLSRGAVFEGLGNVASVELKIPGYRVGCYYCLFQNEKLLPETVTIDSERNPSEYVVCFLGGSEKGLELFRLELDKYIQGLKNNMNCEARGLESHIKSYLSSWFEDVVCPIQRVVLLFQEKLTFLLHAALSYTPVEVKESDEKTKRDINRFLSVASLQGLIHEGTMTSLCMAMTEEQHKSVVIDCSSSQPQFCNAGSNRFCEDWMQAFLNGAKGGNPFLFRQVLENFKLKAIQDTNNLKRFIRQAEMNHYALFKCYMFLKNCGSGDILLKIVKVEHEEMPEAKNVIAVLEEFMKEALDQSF
UniProt Q5TGZ0: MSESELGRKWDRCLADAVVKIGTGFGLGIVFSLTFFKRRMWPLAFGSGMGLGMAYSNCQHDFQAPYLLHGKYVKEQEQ
UniProt Q96MD7: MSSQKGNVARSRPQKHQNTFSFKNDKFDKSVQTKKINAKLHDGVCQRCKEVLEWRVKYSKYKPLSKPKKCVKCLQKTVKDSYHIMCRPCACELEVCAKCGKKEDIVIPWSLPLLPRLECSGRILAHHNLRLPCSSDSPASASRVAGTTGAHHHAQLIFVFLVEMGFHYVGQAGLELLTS
UniProt Q9P0P8: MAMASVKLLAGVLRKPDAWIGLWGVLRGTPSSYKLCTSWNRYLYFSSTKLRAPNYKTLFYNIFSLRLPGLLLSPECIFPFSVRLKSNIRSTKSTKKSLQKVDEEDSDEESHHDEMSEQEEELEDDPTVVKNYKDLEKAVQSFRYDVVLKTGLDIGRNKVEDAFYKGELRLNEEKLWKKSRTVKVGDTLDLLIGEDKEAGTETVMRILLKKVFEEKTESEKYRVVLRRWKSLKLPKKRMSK
UniProt Q5XKP0: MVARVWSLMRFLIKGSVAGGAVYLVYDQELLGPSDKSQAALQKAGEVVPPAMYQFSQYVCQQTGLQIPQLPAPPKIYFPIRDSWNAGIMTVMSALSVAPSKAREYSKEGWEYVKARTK
UniProt Q9NWH2: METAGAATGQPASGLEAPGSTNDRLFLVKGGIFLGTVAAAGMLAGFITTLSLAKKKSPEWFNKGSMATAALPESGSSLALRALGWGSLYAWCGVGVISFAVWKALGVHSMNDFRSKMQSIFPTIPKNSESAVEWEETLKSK
UniProt Q8IYB1: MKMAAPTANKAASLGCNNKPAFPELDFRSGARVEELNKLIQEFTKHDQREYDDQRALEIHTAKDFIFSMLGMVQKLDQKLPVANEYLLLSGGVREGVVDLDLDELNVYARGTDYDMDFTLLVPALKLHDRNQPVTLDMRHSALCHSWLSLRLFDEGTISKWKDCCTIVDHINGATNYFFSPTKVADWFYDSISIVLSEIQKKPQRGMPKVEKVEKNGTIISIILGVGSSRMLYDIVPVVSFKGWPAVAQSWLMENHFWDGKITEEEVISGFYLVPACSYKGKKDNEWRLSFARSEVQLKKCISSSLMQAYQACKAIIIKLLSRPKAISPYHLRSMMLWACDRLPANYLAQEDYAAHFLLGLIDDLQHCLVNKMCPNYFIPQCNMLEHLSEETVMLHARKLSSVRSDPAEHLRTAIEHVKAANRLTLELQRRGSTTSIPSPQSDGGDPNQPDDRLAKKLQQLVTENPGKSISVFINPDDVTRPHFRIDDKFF
UniProt P49662: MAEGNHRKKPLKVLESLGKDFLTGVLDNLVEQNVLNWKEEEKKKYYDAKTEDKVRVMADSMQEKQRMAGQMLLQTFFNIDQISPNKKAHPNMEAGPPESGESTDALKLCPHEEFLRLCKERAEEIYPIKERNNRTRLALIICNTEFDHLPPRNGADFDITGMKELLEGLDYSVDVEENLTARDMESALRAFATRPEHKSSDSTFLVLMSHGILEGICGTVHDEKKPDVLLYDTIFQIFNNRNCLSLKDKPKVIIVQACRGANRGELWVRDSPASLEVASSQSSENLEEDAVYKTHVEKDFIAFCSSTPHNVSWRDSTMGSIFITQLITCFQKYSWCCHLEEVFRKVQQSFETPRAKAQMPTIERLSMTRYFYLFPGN
UniProt Q07021: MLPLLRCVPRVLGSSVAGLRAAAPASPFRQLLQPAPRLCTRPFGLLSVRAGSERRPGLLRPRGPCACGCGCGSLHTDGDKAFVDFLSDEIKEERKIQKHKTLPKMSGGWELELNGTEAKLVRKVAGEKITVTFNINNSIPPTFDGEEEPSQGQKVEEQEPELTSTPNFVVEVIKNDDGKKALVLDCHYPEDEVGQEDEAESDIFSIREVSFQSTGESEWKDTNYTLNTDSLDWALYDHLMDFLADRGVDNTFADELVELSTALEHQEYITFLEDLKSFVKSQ
UniProt Q5T7W7: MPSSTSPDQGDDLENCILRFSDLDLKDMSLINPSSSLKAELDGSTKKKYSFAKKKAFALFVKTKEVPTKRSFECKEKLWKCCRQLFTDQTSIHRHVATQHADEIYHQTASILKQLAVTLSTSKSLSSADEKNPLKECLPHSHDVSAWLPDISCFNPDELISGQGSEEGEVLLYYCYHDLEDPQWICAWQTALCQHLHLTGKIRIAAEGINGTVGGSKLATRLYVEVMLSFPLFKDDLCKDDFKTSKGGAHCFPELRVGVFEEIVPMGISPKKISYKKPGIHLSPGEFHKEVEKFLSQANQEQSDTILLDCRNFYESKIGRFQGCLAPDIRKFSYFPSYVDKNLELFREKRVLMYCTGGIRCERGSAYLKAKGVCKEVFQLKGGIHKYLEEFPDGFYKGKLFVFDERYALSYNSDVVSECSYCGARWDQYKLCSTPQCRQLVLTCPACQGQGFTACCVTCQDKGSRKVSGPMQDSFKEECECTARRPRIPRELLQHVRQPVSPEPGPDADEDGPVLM
UniProt Q96DZ1: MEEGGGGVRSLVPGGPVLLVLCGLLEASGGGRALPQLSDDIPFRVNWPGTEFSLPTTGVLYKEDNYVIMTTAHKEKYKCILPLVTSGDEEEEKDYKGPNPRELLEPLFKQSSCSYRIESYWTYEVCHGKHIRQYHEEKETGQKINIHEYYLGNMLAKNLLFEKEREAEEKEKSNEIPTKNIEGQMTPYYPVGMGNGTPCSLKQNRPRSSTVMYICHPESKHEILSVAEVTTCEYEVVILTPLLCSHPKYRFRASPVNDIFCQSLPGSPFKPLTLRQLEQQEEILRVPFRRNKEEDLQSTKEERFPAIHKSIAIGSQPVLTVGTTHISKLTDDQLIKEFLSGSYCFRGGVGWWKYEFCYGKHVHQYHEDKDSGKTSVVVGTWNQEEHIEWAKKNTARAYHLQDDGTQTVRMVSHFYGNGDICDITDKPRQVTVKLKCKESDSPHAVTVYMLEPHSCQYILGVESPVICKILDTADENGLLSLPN
UniProt P0DPI2: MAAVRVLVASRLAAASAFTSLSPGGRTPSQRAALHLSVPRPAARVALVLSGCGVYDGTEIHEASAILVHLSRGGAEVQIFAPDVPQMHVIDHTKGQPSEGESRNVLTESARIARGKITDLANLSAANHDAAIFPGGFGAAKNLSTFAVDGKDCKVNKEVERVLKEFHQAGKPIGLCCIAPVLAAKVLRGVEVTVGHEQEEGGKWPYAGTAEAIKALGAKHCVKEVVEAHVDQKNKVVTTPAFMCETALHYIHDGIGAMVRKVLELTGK
UniProt Q9BSF4: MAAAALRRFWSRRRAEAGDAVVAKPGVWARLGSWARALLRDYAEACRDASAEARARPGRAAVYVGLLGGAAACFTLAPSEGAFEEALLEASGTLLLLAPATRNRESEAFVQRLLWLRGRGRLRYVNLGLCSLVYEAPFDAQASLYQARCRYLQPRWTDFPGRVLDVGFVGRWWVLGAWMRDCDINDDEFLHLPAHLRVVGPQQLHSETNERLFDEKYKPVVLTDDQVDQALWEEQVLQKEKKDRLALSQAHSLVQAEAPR
UniProt Q9BUV8: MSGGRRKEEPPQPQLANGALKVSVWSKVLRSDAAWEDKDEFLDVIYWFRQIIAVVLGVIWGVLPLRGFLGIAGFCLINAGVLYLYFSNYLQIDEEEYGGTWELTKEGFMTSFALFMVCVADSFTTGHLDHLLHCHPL
UniProt Q9H993: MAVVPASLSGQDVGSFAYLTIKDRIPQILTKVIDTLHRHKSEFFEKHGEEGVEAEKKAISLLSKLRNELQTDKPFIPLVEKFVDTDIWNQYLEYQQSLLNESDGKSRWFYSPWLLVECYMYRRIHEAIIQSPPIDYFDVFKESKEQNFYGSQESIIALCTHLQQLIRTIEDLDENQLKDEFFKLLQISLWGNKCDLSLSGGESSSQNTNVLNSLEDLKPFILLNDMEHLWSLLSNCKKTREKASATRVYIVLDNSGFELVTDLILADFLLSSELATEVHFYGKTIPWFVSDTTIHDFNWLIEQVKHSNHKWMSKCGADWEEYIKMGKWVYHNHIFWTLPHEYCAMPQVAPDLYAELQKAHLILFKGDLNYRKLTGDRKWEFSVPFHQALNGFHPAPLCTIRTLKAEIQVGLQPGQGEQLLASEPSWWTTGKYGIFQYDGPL
UniProt Q8NI60: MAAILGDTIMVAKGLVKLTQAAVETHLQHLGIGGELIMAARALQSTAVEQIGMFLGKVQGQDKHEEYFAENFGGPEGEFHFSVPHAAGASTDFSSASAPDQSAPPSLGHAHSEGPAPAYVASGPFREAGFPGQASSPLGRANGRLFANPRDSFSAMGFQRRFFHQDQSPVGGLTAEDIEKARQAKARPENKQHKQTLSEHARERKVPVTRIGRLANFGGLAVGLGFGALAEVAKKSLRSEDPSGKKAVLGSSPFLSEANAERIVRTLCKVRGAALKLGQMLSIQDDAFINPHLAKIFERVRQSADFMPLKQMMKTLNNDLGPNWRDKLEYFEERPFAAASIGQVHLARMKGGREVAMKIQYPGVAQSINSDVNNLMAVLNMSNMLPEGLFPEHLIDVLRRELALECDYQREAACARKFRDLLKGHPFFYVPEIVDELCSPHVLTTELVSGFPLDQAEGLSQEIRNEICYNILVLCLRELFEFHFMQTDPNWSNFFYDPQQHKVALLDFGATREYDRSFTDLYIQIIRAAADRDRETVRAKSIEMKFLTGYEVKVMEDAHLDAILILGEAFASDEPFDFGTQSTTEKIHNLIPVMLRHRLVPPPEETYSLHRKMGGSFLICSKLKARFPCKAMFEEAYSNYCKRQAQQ
UniProt Q75N03: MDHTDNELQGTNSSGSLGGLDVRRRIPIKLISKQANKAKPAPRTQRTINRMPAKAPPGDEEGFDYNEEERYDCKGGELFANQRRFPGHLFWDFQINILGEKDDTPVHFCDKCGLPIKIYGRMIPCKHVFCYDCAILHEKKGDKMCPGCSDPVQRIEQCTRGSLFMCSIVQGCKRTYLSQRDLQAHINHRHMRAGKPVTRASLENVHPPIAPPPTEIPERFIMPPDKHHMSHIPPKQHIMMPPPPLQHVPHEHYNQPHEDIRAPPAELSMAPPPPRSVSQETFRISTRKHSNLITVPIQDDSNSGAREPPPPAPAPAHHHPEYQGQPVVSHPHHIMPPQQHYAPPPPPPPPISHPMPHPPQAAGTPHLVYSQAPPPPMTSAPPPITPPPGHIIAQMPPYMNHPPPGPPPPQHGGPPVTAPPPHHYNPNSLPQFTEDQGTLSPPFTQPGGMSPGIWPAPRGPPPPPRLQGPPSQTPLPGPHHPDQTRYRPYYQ
UniProt Q13557, whole entry: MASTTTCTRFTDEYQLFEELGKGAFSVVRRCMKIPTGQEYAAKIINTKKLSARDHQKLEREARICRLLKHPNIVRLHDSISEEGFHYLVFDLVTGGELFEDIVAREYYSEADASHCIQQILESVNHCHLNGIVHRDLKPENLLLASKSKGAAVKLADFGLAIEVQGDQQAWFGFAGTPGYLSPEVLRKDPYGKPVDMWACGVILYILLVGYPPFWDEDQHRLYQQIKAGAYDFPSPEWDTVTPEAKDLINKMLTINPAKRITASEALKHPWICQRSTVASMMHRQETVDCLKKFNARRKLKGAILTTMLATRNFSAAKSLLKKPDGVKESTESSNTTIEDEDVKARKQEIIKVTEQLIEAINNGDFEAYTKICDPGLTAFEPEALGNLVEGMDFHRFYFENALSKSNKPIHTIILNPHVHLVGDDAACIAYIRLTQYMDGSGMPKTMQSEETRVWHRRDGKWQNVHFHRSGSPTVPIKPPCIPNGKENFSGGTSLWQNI
UniProt Q8N5L8: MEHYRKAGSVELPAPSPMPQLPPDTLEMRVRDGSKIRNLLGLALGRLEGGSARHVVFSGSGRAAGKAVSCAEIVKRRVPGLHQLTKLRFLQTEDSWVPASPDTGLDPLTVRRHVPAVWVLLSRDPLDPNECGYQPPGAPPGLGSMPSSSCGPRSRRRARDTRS
UniProt Q9BU79: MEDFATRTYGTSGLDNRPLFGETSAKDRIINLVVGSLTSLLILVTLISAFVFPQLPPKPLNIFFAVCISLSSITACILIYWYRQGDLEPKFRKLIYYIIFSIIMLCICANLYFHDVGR

These targets were tested with COc1ccc(Cn2ccc3ccc(C(=O)NO)cc32)cc1 (assay: dose-dependent thermal stabilisation call (2D-TPP, DLPTP, 10% FDR) (binary (1 = stabilised)); higher = stabilised by the compound). Conditions: system: HL-60 intact cells; concentration range 0.04-10 µM.
With CASP14 (UniProt P31944) the “dose-dependent thermal stabilisation call” value was inactive: 0. For C17ORF75 (UniProt Q9HAS0), the “dose-dependent thermal stabilisation call” value was inactive: 0. In the case of C1ORF151 (UniProt Q5TGZ0), the “dose-dependent thermal stabilisation call” value is reported as inactive: 0. With C9ORF85 (UniProt Q96MD7) the “dose-dependent thermal stabilisation call” value was inactive: 0. C3ORF63 (UniProt Q9UK61) was tested, and the “dose-dependent thermal stabilisation call” value was inactive: 0. C6ORF203 (UniProt Q9P0P8) was tested, and the “dose-dependent thermal stabilisation call” value was inactive: 0. C19ORF70 (UniProt Q5XKP0) was tested, and the “dose-dependent thermal stabilisation call” value was inactive: 0. For CAMKK2 (UniProt Q96RR4), the “dose-dependent thermal stabilisation call” value was inactive: 0. In the case of C6ORF35 (UniProt Q9NWH2), the “dose-dependent thermal stabilisation call” value is reported as inactive: 0. With C6ORF129 (UniProt Q9P0B6) the “dose-dependent thermal stabilisation call” value was inactive: 0. With C3ORF59 (UniProt Q8IYB1) the “dose-dependent thermal stabilisation call” value was inactive: 0. CAPZA2 (UniProt P47755) was tested, and the “dose-dependent thermal stabilisation call” value was inactive: 0. For C9ORF5 (UniProt Q9H330), the “dose-dependent thermal stabilisation call” value was inactive: 0. With C9ORF140 (UniProt Q86UD0) the “dose-dependent thermal stabilisation call” value was inactive: 0. In the case of C17ORF70 (UniProt Q0VG06), the “dose-dependent thermal stabilisation call” value is reported as inactive: 0. For CASP4 (UniProt P49662), the “dose-dependent thermal stabilisation call” value was inactive: 0. With C1QBP (UniProt Q07021) the “dose-dependent thermal stabilisation call” value was inactive: 0. C2ORF29 (UniProt Q9UKZ1) was tested, and the “dose-dependent thermal stabilisation call” value was inactive: 0. With C9ORF97 (UniProt Q5T7W7) the “dose-dependent thermal stabilisation call” value was inactive: 0. In the case of C2ORF30 (UniProt Q96DZ1), the “dose-dependent thermal stabilisation call” value is reported as inactive: 0. C21ORF33 (UniProt P0DPI2) was tested, and the “dose-dependent thermal stabilisation call” value was inactive: 0. With C8ORF41 (UniProt Q6NXR4) the “dose-dependent thermal stabilisation call” value was inactive: 0. C19ORF52 (UniProt Q9BSF4) was tested, and the “dose-dependent thermal stabilisation call” value was inactive: 0. With CBL (UniProt P22681) the “dose-dependent thermal stabilisation call” value was inactive: 0. C20ORF24 (UniProt Q9BUV8) was tested, and the “dose-dependent thermal stabilisation call” value was inactive: 0. For C21ORF66 (UniProt Q9Y5B6), the “dose-dependent thermal stabilisation call” value was inactive: 0. For CALCOCO2 (UniProt Q13137), the “dose-dependent thermal stabilisation call” value was inactive: 0. For C9ORF40 (UniProt Q8IXQ3), the “dose-dependent thermal stabilisation call” value was inactive: 0. With CABIN1 (UniProt Q9Y6J0) the “dose-dependent thermal stabilisation call” value was inactive: 0. For C6ORF211 (UniProt Q9H993), the “dose-dependent thermal stabilisation call” value was inactive: 0. With C7ORF27 (UniProt Q6PJG6) the “dose-dependent thermal stabilisation call” value was inactive: 0. In the case of CABC1 (UniProt Q8NI60), the “dose-dependent thermal stabilisation call” value is reported as inactive: 0. With CBLL1 (UniProt Q75N03) the “dose-dependent thermal stabilisation call” value was inactive: 0. With CAMK2D (UniProt Q13557) the “dose-dependent thermal stabilisation call” value was active: 1. With C7ORF25 (UniProt Q9BPX7) the “dose-dependent thermal stabilisation call” value was inactive: 0. For C9ORF23 (UniProt Q8N5L8), the “dose-dependent thermal stabilisation call” value was inactive: 0. With C9ORF114 (UniProt Q5T280) the “dose-dependent thermal stabilisation call” value was inactive: 0. With C7ORF23 (UniProt Q9BU79) the “dose-dependent thermal stabilisation call” value was inactive: 0.
